From paper PMC9402439
These are yes or no findings as the source states them, for the method shown. Binding seen in cells or lysates may run through a third protein. Some entries that bind do so weakly or less than the wild type. Sequences can lack the tags named with a protein. Blank lines part the entries; values can stand above or below the binder they belong to.

Experiments:
[1] = target: T1, TEN1 with N-terminal HA tag (human) (UniProt Q86WV5); experiment: co-IP; successive anti-FLAG and anti-HA immunopurifications of 3×FLAG-CTC1, Myc-STN1 and HA-TEN1 from transfected HEK293T cells, 150 mM NaCl in the wash and elution buffers; subunits found by western blot and quantified against insect-cell standards
T1 sequence: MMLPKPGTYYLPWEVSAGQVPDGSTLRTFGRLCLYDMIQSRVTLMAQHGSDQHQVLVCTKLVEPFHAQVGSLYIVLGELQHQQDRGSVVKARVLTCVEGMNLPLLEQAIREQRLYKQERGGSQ

[2] = target: T2, CTC1 with N-terminal 3×FLAG tag (human) (UniProt Q2NKJ3); experiment: as above
T2 sequence: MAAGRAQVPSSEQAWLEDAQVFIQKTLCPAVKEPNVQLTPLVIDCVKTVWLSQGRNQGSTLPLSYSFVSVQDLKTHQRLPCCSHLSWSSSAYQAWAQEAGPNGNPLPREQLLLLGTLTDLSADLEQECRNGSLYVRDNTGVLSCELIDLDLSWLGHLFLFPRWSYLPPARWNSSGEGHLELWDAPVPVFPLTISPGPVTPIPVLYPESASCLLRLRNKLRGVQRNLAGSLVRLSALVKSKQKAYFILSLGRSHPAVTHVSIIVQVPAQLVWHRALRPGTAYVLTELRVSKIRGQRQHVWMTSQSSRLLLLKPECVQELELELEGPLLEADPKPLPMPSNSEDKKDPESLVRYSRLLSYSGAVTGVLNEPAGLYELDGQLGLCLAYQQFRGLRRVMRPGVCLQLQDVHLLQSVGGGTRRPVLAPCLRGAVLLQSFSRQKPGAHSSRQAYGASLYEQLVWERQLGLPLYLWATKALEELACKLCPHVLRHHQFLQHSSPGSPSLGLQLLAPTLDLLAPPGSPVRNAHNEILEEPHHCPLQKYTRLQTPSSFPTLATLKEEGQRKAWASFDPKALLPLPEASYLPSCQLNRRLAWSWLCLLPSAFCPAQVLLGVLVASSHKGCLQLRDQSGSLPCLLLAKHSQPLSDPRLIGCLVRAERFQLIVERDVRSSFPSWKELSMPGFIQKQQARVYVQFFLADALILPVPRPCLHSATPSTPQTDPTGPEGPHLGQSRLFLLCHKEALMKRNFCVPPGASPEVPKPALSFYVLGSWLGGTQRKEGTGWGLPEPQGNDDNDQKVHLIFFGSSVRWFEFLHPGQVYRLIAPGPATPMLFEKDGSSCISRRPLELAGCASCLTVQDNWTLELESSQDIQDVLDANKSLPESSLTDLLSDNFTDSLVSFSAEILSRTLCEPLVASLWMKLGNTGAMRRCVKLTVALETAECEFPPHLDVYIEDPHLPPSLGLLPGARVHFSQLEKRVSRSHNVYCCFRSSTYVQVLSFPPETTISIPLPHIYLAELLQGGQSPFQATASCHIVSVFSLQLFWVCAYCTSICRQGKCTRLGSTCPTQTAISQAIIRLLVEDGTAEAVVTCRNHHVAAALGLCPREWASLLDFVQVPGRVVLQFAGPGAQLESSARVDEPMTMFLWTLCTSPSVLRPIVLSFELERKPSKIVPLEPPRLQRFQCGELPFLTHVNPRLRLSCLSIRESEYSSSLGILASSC

binding [1]: binds
binding [2]: binds
B1: STN1 with N-terminal Myc tag (protein, UniProt Q9H668 1-368)
chain: MQPGSSRCEEETPSLLWGLDPVFLAFAKLYIRDILDMKESRQVPGVFLYNGHPIKQVDVLGTVIGVRERDAFYSYGVDDSTGVINCICWKKLNTESVSAAPSAARELSLTSQLKKLQETIEQKTKIEIGDTIRVRGSIRTYREEREIHATTYYKVDDPVWNIQIARMLELPTIYRKVYDQPFHSSALEKEEALSNPGALDLPSLTSLLSEKAKEFLMENRVQSFYQQELEMVESLLSLANQPVIHSASSDQVNFKKDTTSKAIHSIFKNAIQLLQEKGLVFQKDDGFDNLYYVTREDKDLHRKIHRIIQQDCQKPNHMEKGCHFLHILACARLSIRPGLSEAVLQQVLELLEDQSDIVSTMEHYYTAF

binding [2]: binds
B2: TEN1 with N-terminal HA tag (protein, UniProt Q86WV5 1-123)
chain: T1 sequence
